Reference: article PMC9588786
These are yes or no findings as the source states them, for the method shown. Binding seen in cells or lysates may run through a third protein. These calls come from enrichment with a bait or labelling near it, and not all partners need be listed.

Chains of the proteins cited; added tags and fusions are not shown.
UniProt P06730: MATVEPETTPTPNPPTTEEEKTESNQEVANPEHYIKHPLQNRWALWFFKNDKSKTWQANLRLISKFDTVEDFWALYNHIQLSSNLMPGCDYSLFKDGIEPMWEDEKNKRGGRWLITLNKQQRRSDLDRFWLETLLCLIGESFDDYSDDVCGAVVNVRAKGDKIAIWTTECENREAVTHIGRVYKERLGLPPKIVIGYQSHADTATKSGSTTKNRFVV
UniProt O75131: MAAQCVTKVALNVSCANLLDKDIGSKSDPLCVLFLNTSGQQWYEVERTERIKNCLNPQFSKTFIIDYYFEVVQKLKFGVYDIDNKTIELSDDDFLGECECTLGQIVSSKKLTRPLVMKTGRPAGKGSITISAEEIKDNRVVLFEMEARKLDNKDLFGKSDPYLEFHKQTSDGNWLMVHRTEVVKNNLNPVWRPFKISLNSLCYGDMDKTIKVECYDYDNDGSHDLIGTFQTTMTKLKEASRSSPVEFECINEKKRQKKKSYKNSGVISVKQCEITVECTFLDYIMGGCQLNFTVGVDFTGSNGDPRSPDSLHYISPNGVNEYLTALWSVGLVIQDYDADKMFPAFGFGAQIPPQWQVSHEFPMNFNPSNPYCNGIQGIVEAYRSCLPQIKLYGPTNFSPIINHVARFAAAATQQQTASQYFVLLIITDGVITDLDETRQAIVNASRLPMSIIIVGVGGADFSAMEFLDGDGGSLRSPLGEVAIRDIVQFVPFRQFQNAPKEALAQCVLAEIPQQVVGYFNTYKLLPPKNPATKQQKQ
UniProt P78417: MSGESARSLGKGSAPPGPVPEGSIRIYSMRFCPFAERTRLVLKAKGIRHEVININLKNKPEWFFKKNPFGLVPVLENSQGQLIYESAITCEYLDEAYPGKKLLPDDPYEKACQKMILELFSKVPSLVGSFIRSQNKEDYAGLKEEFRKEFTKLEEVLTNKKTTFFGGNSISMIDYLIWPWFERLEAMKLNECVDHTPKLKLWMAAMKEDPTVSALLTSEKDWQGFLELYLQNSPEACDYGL
UniProt Q9H7Z7: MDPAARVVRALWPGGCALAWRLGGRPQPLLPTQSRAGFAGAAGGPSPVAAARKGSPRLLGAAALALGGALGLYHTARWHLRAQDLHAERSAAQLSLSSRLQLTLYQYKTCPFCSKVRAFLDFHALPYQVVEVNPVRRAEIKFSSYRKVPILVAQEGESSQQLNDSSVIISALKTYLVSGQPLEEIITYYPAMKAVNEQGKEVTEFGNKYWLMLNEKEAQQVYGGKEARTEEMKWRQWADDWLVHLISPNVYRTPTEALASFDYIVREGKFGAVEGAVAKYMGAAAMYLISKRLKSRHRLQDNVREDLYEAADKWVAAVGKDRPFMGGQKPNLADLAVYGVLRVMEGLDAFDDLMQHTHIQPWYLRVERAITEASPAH

B1: hydroxysteroid 17-beta dehydrogenase 4 (HSD17B4) (enzyme, UniProt P51659 1-736)
chain: MGSPLRFDGRVVLVTGAGAGLGRAYALAFAERGALVVVNDLGGDFKGVGKGSLAADKVVEEIRRRGGKAVANYDSVEEGEKVVKTALDAFGRIDVVVNNAGILRDRSFARISDEDWDIIHRVHLRGSFQVTRAAWEHMKKQKYGRIIMTSSASGIYGNFGQANYSAAKLGLLGLANSLAIEGRKSNIHCNTIAPNAGSRMTQTVMPEDLVEALKPEYVAPLVLWLCHESCEENGGLFEVGAGWIGKLRWERTLGAIVRQKNHPMTPEAVKANWKKICDFENASKPQSIQESTGSIIEVLSKIDSEGGVSANHTSRATSTATSGFAGAIGQKLPPFSYAYTELEAIMYALGVGASIKDPKDLKFIYEGSSDFSCLPTFGVIIGQKSMMGGGLAEIPGLSINFAKVLHGEQYLELYKPLPRAGKLKCEAVVADVLDKGSGVVIIMDVYSYSEKELICHNQFSLFLVGSGGFGGKRTSDKVKVAVAIPNRPPDAVLTDTTSLNQAALYRLSGDWNPLHIDPNFASLAGFDKPILHGLCTFGFSARRVLQQFADNDVSRFKAIKARFAKPVYPGQTLQTEMWKEGNRIHFQTKVQETGDIVISNAYVDLAPTSGTSAKTPSEGGKLQSTFVFEEIGRRLKDIGPEVVKKVNAVFEWHITKGGNIGAKWTIDLKSGSGKVYQGPAKGAADTTIILSDEDFMEVVLGKLDPQKAFFSGRLKARGNIMLSQKLQMILKDYAKL
B2: isoleucyl-tRNA synthetase 1 (IARS) (enzyme, UniProt P41252 1-1262)
chain: MLQQVPENINFPAEEEKILEFWTEFNCFQECLKQSKHKPKFTFYDGPPFATGLPHYGHILAGTIKDIVTRYAHQSGFHVDRRFGWDCHGLPVEYEIDKTLGIRGPEDVAKMGITEYNNQCRAIVMRYSAEWKSTVSRLGRWIDFDNDYKTLYPQFMESVWWVFKQLYDKGLVYRGVKVMPFSTACNTPLSNFESHQNYKDVQDPSVFVTFPLEEDETVSLVAWTTTPWTLPSNLAVCVNPEMQYVKIKDVARGRLLILMEARLSALYKLESDYEILERFPGAYLKGKKYRPLFDYFLKCKENGAFTVLVDNYVKEEEGTGVVHQAPYFGAEDYRVCMDFNIIRKDSLPVCPVDASGCFTTEVTDFAGQYVKDADKSIIRTLKEQGRLLVATTFTHSYPFCWRSDTPLIYKAVPSWFVRVENMVDQLLRNNDLCYWVPELVREKRFGNWLKDARDWTISRNRYWGTPIPLWVSDDFEEVVCIGSVAELEELSGAKISDLHRESVDHLTIPSRCGKGSLHRISEVFDCWFESGSMPYAQVHYPFENKREFEDAFPADFIAEGIDQTRGWFYTLLVLATALFGQPPFKNVIVNGLVLASDGQKMSKRKKNYPDPVSIIQKYGADALRLYLINSPVVRAENLRFKEEGVRDVLKDVLLPWYNAYRFLIQNVLRLQKEEEIEFLYNENTVRESPNITDRWILSFMQSLIGFFETEMAAYRLYTVVPRLVKFVDILTNWYVRMNRRRLKGENGMEDCVMALETLFSVLLSLCRLMAPYTPFLTELMYQNLKVLIDPVSVQDKDTLSIHYLMLPRVREELIDKKTESAVSQMQSVIELGRVIRDRKTIPIKYPLKEIVVIHQDPEALKDIKSLEKYIIEELNVRKVTLSTDKNKYGIRLRAEPDHMVLGKRLKGAFKAVMTSIKQLSSEELEQFQKTGTIVVEGHELHDEDIRLMYTFDQATGGTAQFEAHSDAQALVLLDVTPDQSMVDEGMAREVINRIQKLRKKCNLVPTDEITVYYKAKSEGTYLNSVIESHTEFIFTTIKAPLKPYPVSPSDKVLIQEKTQLKGSELEITLTRGSSLPGPACAYVNLNICANGSEQGGVLLLENPKGDNRLDLLKLKSVVTSIFGVKNTELAVFHDETEIQNQTDLLSLSGKTLCVTAGSAPSLINSSSTLLCQYINLQLLNAKPQECLMGTVGTLLLENPLGQNGLTHQGLLYEAAKVFGLRSRKLKLFLNETQTQEITEDIPVKTLNMKTVYVSVLPTTADF
B3: aldehyde dehydrogenase 1 family member B1 (ALDH1B1) (enzyme, UniProt P30837 18-517)
chain: RYSSAAALPSPILNPDIPYNQLFINNEWQDAVSKKTFPTVNPTTGEVIGHVAEGDRADVDRAVKAAREAFRLGSPWRRMDASERGRLLNRLADLVERDRVYLASLETLDNGKPFQESYALDLDEVIKVYRYFAGWADKWHGKTIPMDGQHFCFTRHEPVGVCGQIIPWNFPLVMQGWKLAPALATGNTVVMKVAEQTPLSALYLASLIKEAGFPPGVVNIITGYGPTAGAAIAQHVDVDKVAFTGSTEVGHLIQKAAGDSNLKRVTLELGGKSPSIVLADADMEHAVEQCHEALFFNMGQCCCAGSRTFVEESIYNEFLERTVEKAKQRKVGNPFELDTQQGPQVDKEQFERVLGYIQLGQKEGAKLLCGGERFGERGFFIKPTVFGGVQDDMRIAKEEIFGPVQPLFKFKKIEEVVERANNTRYGLAAAVFTRDLDKAMYFTQALQAGTVWVNTYNIVTCHTPFGGFKESGNGRELGEDGLKAYTEVKTVTIKVPQKNS

Each molecule was assayed against eukaryotic initiation factor 4E (EIF4E) (human (endogenous in HT-1080 and Calu-1)) (UniProt P06730) (assay: affinity purification with mass spectrometry; EIF4E immunoprecipitated with an anti-EIF4E antibody from HT-1080 and Calu-1 cells treated with RSL3 (0.5 μM, 4 h); in-gel trypsin digestion, LC-MS/MS).
For “copine 3 (CPNE3) (from UniProt O75131 1-537)”, the binding was “binds”. In the case of “glutathione S-transferase omega 1 (GSTO1) (from UniProt P78417 1-241) (enzyme)”, the binding is reported as “binds”. “prostaglandin E synthase 2 (PTGES2) (from UniProt Q9H7Z7 1-377) (enzyme)” was tested, and the binding was “binds”. With B1 the binding was “binds”. For B2, the binding was “binds”. In the case of B3, the binding is reported as “binds”.
